Results are given in words; binding and its absence hold for the method and conditions named. Binding seen in cells or lysates may run through a third protein. Some results given as binding are weak or reduced against the parent protein; the word gives no strength.
Tests used:
Test in all cases: co-IP; Fig. 4J, K and Supplementary Fig. 2G-I; cell lysate in IP lysis buffer with protease inhibitors, magnetic beads with selected antibodies, overnight at 4 °C, Western blot; cells and bait not stated
[1] = target: TGFB1 (UniProt P01137)
[2] = target: HSP90AA1 (UniProt P07900)
[3] = target: T1, IFI6 (UniProt P09912)
T1 sequence: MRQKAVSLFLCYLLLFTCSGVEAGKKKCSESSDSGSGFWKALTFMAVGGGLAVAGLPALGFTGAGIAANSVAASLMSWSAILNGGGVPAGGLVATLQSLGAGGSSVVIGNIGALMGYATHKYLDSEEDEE

binding [1] | binding [2] | binding [3] | Substance
binds | binds | binds | AHSA1 (Activator of HSP90AA1 ATPase Activity 1) (from UniProt O95433 1-338)
binds | – | binds | HSP90AA1 (from UniProt P07900 1-732)

From PMC12000569
